{
  "sequences": {"note": "By UniProt entry, the sequences of proteins in these tests, tags left out.", "UniProt Q38C92": "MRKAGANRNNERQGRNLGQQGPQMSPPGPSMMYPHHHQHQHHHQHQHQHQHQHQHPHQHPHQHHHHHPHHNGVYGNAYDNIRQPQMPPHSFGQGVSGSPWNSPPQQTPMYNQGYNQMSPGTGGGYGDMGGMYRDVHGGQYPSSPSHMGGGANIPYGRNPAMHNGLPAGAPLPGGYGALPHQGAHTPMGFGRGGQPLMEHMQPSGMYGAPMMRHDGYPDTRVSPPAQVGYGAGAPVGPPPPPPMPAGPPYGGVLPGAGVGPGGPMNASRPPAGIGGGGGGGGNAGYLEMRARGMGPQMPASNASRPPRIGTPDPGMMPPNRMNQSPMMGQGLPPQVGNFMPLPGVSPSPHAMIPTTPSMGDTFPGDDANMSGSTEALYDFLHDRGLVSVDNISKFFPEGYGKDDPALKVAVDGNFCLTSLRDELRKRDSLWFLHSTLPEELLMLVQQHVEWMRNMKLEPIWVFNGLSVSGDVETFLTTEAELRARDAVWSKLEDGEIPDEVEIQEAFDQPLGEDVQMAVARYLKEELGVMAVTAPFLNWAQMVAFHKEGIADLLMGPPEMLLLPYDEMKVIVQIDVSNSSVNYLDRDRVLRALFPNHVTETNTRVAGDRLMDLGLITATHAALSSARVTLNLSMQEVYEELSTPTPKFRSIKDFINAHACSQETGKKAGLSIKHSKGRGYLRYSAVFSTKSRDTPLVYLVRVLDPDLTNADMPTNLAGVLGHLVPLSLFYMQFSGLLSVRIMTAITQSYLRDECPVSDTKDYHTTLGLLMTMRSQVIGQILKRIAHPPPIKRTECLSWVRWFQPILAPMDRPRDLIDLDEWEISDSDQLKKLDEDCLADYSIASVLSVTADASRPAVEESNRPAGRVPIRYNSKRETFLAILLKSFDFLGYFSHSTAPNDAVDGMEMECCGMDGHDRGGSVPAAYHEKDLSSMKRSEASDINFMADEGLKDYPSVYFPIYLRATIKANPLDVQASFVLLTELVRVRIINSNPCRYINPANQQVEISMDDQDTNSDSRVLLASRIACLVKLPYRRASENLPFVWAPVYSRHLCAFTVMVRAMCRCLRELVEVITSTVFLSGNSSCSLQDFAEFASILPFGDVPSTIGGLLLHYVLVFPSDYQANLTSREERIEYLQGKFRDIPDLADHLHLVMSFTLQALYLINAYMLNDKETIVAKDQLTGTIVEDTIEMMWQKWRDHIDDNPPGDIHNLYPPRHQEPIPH"},
  "source": "paper doi:10.1101/2020.03.02.973057",
  "molecules": {"B1": {"name": "YFP-XAC1 (protein, UniProt Q57Y88 1-117)", "chain": "MSKAPSQPAKKWMSARTLAKSEDATNRKSNTAAPASQPSQQPASVMHERPTPPPPAPVQLPQSVFFERQEAVDTLSNLYRNAQSVKKIETGPAAFEARDISKVHEELMDCLRPAAAA"}, "B2": {"name": "LSM12-myc (protein, UniProt Q38E83 1-190)", "chain": "MPVCNNDSQLIGLGVSVTLADDTTVNGTVYTYNSSEGLLVLFQGFSGSNPNVKIIRTPFIKEVTALRDNEEKLPPQLEAKARLPSMQAARDRSLFKHASSQLRNAKDKRNQLLQTDDQKTPIAALDTLIKLERIYPDIHWDKDAGVIRFNQDVVVKGKPDWTSPAVVIAEGAGDISRSLMERVQKTLSKK"}, "B3": {"name": "V5-MKT1 (protein, UniProt Q587E3 1-735)", "chain": "MYPRHDDVSLFQRFVNDHKLEEKGLPLYQLAQLEGTDQVMLGVDGTKIIDMITQAVREREKMAIYTYTTPYTVYEKINEFRTMFQSIKNCTPVFVFNGIQYSPDSAEEFGREKNVVPSEVAALTGTDSSRLSNTTNVRFAEIHKKTANRFVVEEDVEGQIIRIFRSEFKNTIRAPYLAWAQLSSFRHCNHRHISEVYGCLELLAFPGIDRVVTNINPTRGTFDVVYKARVLEAARLSEEDLSSLILVESRSRVMRTVTLKFSSLEDMIKKVVRYKGSTIGASFAQQLHEEAIRASEANRMRASNQRGAAFRNLSAFASPVLTLTPPHCLPLHFLYGIPGFPHADAESFVGLPLPPVLYYIMSAGLLSPSLFAAVSQETVVDDWPLVDSIKYRDVAETVLPLRVQTIYQLAWTMSRGLGSISWFRRYNVLPARVSKLHVPPAIQLDGWALHSVTVPRGLHLVDVMEFAHLACSVDQVIYNTMEETYAAILLQSLDLLGYLTHETQDLHEEGQSSEPSTFGRALQLCSVPTLSEYTVLLIELARTNAISTEPFRITTEEVSPRDTPRDIVFASRVLSIIPLNVSGPWTAPIDAELAAFSMLSRMISRSIRQLLEAITTLMFSKGRTHVPLHRIGEIQRLLPFSTPVEFGCGVLVEYMLMKDKCTLKDLEEAFPECTYLRHDLATLFYFWDLAVQVLQRIETKENFCVDQHCLSSANERMKRAQKNLNILTGVRETYY"}},
  "experiment_in_all_cases": "co-IP",
  "key": {"[1]": {"target": "T1, ZC3H20-myc (Trypanosoma brucei) (UniProt Q57XK8)", "T1 sequence": "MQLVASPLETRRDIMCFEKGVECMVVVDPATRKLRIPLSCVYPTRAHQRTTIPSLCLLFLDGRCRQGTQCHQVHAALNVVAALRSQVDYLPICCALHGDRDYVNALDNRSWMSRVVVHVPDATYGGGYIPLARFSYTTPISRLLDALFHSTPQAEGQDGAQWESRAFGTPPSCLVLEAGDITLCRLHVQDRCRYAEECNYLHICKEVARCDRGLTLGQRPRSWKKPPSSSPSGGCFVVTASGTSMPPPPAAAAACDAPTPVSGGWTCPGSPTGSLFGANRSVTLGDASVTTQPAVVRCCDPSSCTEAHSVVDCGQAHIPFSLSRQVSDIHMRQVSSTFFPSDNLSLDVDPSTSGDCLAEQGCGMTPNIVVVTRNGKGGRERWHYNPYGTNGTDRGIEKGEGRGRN"}, "[2]": {"target": "T2, LSM12-myc (Trypanosoma brucei) (UniProt Q38E83)", "T2 sequence": "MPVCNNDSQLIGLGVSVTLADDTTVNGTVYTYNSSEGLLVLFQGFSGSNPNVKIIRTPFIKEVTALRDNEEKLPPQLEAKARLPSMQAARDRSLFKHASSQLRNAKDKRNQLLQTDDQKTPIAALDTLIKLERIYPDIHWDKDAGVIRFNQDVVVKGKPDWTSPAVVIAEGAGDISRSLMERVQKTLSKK"}, "[3]": {"target": "T3, YFP-XAC1 (Trypanosoma brucei) (UniProt Q57Y88)", "T3 sequence": "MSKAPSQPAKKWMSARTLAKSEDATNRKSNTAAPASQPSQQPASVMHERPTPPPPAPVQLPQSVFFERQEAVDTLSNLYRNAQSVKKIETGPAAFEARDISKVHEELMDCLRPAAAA"}, "[4]": {"target": "T1, ZC3H20-myc (Trypanosoma brucei)", "remark": "listed apart in the source"}},
  "note": "Read-outs that look alike come from different tables or passages of the source. No constants are given. Whether binding was seen depends on the method and setting. Binding seen in cells or lysates may run through a third protein. Some entries that bind do so weakly or less than the wild type. Tags and fused reporters may be left off the sequences shown.",
  "data": [
    {"molecule": "V5-MKT1L (from UniProt Q38C92 1-1220)", "values": [
      {"measurement": "binding", "setting": "[1]", "value": "binds weakly"}
    ]},
    {"molecule": "B1", "values": [
      {"measurement": "binding", "setting": "[2]", "value": "binds"}
    ]},
    {"molecule": "B2", "values": [
      {"measurement": "binding", "setting": "[3]", "value": "binds"}
    ]},
    {"molecule": "B3", "values": [
      {"measurement": "binding", "setting": "[4]", "value": "binds"}
    ]}
  ]
}
